This is an account of results in article PMC3646763.

Chains of the proteins cited; added tags and fusions are not shown. Chains listed by the source or under a name are the forms on record and can include a tag or linker.
CNBP (zCNBP, formerly ZNF9) (Danio rerio), one chain, as listed by the source: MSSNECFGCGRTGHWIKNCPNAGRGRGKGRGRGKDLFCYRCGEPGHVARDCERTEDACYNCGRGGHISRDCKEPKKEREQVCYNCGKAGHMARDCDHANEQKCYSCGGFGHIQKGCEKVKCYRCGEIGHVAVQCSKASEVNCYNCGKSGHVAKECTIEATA

This data set concerns CNBP (zCNBP, formerly ZNF9) (Danio rerio). Nature of the data set: EMSA. The following applies: EMSA: 20 ul, 30 min at 37 C, 2 nM 32P probe, 0.015-5 uM zCNBP, 12% (14-nt) or 10% (30-nt) PAGE with 5% glycerol, 0.5x TBE, binding buffer, recombinant protein, label: 32P. A general note: Mobility shift assays separate free from complexed probe on a gel.
Where [1] appears, read: up to 5 uM CNBP, single-stranded DNA.

For at least one entry, the source does not settle the construct or the ends of the probe. Negatives hold for the conditions tested. The comparison behind a weaker result is the experiment's own reference, which may not be listed here. At least one verdict was read from the data and is not stated in words by the source.

“TAATAATAGAGGGGGAGGGGGGATAATAAT (double strand) [ds-C30]”: for the setting “up to 5 uM CNBP”, the binding result was “no binding”.
As for GAAGAAGAAGAGAG [C14-mut], the binding result under setting [1] is “no binding”.
Regarding GAAGCTCAGAAAAATAAAAGAGTGCAGCAC [s2-mut], the binding result (single-stranded DNA) is reported as “binds more weakly”.
For “TAATAATAGAAGAAGAAGAGAGATAATAAT [C30-mut]”, the binding result under setting [1] was “no binding”.
For the sequence GATGGAGAGAGTGGGAGAGAAGAAGCAGAG [t1], the binding result (single-stranded DNA) is listed as “binds”.
On to TAATAATAGAGGGGGAGGGGGGATAATAAT [C30], for which the binding result (similar to C14, single-stranded DNA) is “binds”.
As for GAGGGGGAGGGGGG [C14], the binding result (high affinity, Kd printed only in figure, single-stranded DNA) is given as “binds”.
Consider GCACCCTGGAAGAAGAAGAAAGGTTGGTAG [s1-mut], for which the binding result (single-stranded DNA) is on record as “binds more weakly”.
As for CCCCCCTCCCCCTC [C14-comp], under setting [1], the binding result is listed as “no binding”.
With GCACCCTGGAGGAGGAGGAAGGGTTGGTAG [s1], the binding result (single-stranded DNA) is listed as “binds”.
The same measure, in the same setting: with GAAGCTCAGAGAGGTAAAGGGGTGCAGCAC [s2] the entry was “binds”; with GATGGAGAGAATAAGAAAAAAGAAGCAGAG [t1-mut], “binds more weakly”.
Turning to GAGGGGGAGGGGGG (double strand) [ds-C14], the binding result (up to 5 uM CNBP) is recorded as “no binding”.
As for “ATTATTATCCCCCCTCCCCCTCTATTATTA [C30-comp]”, the binding result under setting [1] was “no binding”.
